Measurements reported in PubChem BioAssay AID330 (DTP/NCI, 2004).
The list does not hold the whole screen: it gathers tests that were run many times, whatever their T/C, doses with no T/C, and many T/C values between a quarter and a half above the control. Other doses and runs of a compound stand elsewhere. T/C gives the treated animals as a percentage of the vehicle group. Some doses have a count of surviving animals in place of a T/C: the source holds a T/C of zero for them, seemingly a mark for toxic or unscored doses. Some doses without a T/C left all or most animals alive at the check, yet need not have been tolerated: the source hardly ever lists a survival T/C far under the control, and the zero likely stands for such cases as well. Survivors were counted at the toxicity check, usually on the fifth day, unless a day is given; later deaths do not show. Schedules are NCI's codes, read here as Q, the interval in days (D) or hours (H), X, the number of doses. Some entries were tested several times; their values stand side by side, smallest first. Some structures stand for samples that the source files as different forms (salt, stereo form or complex); doses refer to the form tested. Marks such as (2×) stand for listed records that agree. Where survival is the endpoint, the PubChem record calls one and a half times the control and up active, and a quarter to a half above the control has no call in these data; cut-offs in other NCI protocols can differ. Some T/C values carry the count of animals alive at the toxicity check (mostly the fifth day); where none is given, no animal had died by that day.

System: P388 leukemia ip, CD2F1 mice, survival T/C
Assay: NCI In Vivo Anticancer Drug Screen. Data for tumor model P388 Leukemia (intraperitoneal) in CD2F1 (CDF1) mice
Conditions: T/C endpoint: median survival time, higher T/C = longer survival
[1] = dose: 200.0 mg/kg/injection, schedule: Q01DX005 (ip), vehicle: saline with Tween-80
[2] = dose: 50.0 mg/kg/injection, schedule: Q01DX009 (ip), vehicle: saline with Tween-80
[3] = dose: 200.0 mg/kg/injection, schedule: Q01DX009 (ip), vehicle: saline with Tween-80
[4] = dose: 240.0 mg/kg/injection, schedule: Q01DX005 (ip), vehicle: saline with Tween-80
[5] = dose: 50.0 mg/kg/injection, schedule: Q01DX009 (ip), vehicle: saline
[6] = dose: 200.0 mg/kg/injection, schedule: Q04DX002 (ip), vehicle: saline with Tween-80
[7] = dose: 200.0 mg/kg/injection, schedule: Q01DX005 (ip), vehicle: Klucel (hydroxypropylcellulose) (HPC)
[8] = dose: 12.5 mg/kg/injection, schedule: Q01DX005 (ip), vehicle: DMSO

SMILES: CCN(CC)CCOc1ccc(Cl)c(C)c1
- survivor count [1]: 2 of 6

SMILES: CCOC(=O)CN(CCN(CC)CC)c1ccc([N+](=O)[O-])cc1[N+](=O)[O-]
- survivor count (dose: 400.0 mg/kg/injection, schedule: Q01DX001 (ip), vehicle: other): 4 of 6

SMILES: O=S(=O)(OCCCl)c1c(F)c(F)c(F)c(F)c1F
- survivor count [2]: 5 of 6
- survivor count (dose: 100.0 mg/kg/injection, schedule: Q01DX009 (ip), vehicle: saline with Tween-80): 4 of 6
- survivor count [3]: 0 of 6

SMILES: NC=NC(CCC(=O)O)C(=O)O (stereo not given)
- survivor count (dose: 100.0 mg/kg/injection, schedule: Q01DX005 (ip), vehicle: saline): 0 of 6
- survivor count (dose: 200.0 mg/kg/injection, schedule: Q01DX005 (ip), vehicle: saline): 0 of 6 (2×)

SMILES: CCOC(=O)c1c(Cl)c(CC)c(N=[N+]=[N-])n2c1nc1ccccc12
- survivor count [4]: 3 of 6

SMILES: CC[N+](CC)=c1ccc2nc3c(cc(NCc4ccccc4)c4ccccc43)oc-2c1
- survivor count (dose: 100.0 mg/kg/injection, schedule: Q01DX005 (ip), vehicle: saline with Tween-80): 4 of 5
- survivor count [1]: 1 of 5

SMILES: O=[N+]([O-])c1ccc(Sc2ncccn2)cc1
- survivor count (dose: 100.0 mg/kg/injection, schedule: Q04DX002 (ip), vehicle: suspension in saline): 3 of 6

SMILES: O=NN(CCOCCCl)C(=O)NC1CCCCC1
- T/C (dose: 50.0 mg/kg/injection, schedule: Q01DX009 (ip), vehicle: water): 125 % of control
- T/C (dose: 100.0 mg/kg/injection, schedule: Q01DX009 (ip), vehicle: water): 136 % of control

SMILES: CCCCCCCCCCCCCC[N+]1(CC)CCOCC1
- survivor count [5]: 2 of 6
- survivor count (dose: 100.0 mg/kg/injection, schedule: Q01DX009 (ip), vehicle: saline): 0 of 6
- survivor count (dose: 200.0 mg/kg/injection, schedule: Q01DX009 (ip), vehicle: saline): 0 of 6

SMILES: CN=C(N)N/N=C/c1ccc2c(c1)Cc1ccccc1-2
- T/C (dose: 12.5 mg/kg/injection, schedule: Q04DX002 (ip), vehicle: saline with Tween-80): 126 % of control
- T/C (dose: 25.0 mg/kg/injection, schedule: Q04DX002 (ip), vehicle: saline with Tween-80): 126 and 129 % of control
- T/C (dose: 50.0 mg/kg/injection, schedule: Q04DX002 (ip), vehicle: saline with Tween-80): 125 % of control [5 of 6 alive]
- T/C (dose: 100.0 mg/kg/injection, schedule: Q04DX002 (ip), vehicle: saline with Tween-80): 132 % of control [5 of 6 alive]
- survivor count [6]: 0 of 6 and 1 of 6

SMILES: C=C1C(NC)CCC23CC24CCC2(C)C(C(C)=O)C(O)CC2(C)C4CCC13 (stereo not given)
- survivor count [3]: 2 of 6
- survivor count (dose: 400.0 mg/kg/injection, schedule: Q01DX009 (ip), vehicle: saline with Tween-80): 0 of 6

SMILES: c1ccc(-c2c[s+]cs2)cc1
- T/C (dose: 50.0 mg/kg/injection, schedule: Q01DX009 (ip), vehicle: distilled water + Tween-80): 133 % of control
- survivor count (dose: 100.0 mg/kg/injection, schedule: Q01DX009 (ip), vehicle: distilled water + Tween-80): 4 of 6
- survivor count (dose: 200.0 mg/kg/injection, schedule: Q01DX009 (ip), vehicle: distilled water + Tween-80): 0 of 6
- survivor count (dose: 400.0 mg/kg/injection, schedule: Q01DX009 (ip), vehicle: distilled water + Tween-80): 0 of 6

SMILES: CCN(CC)CCOC(=O)c1c[nH]c2ccccc12
- survivor count (dose: 50.0 mg/kg/injection, schedule: Q01DX005 (ip), vehicle: Klucel (hydroxypropylcellulose) (HPC)): 3 of 6
- survivor count (dose: 100.0 mg/kg/injection, schedule: Q01DX005 (ip), vehicle: Klucel (hydroxypropylcellulose) (HPC)): 6 of 6
- survivor count [7]: 3 of 6 and 5 of 6

SMILES: O=C1CN(CN2CCOCC2)C(=O)CN1CN1CCOCC1
- T/C [5]: 135 % of control

SMILES: COc1ccc(C2c3cc4c(cc3OC(N3CCCC3)C2C)OCO4)cc1 (stereo not given)
- survivor count (dose: 60.0 mg/kg/injection, schedule: Q01DX005 (ip), vehicle: saline with Tween-80): 6 of 6
- survivor count (dose: 120.0 mg/kg/injection, schedule: Q01DX005 (ip), vehicle: saline with Tween-80): 6 of 6
- survivor count [4]: 5 of 6

SMILES: C/C(=N\NC(=S)Nc1ccc(C(=O)O)cc1)c1ccc2ccccc2n1
- survivor count [1]: 3 of 6

SMILES: COc1cc2c3c(c1O)-c1c(cccc1OC)CC3N(C)CC2 (stereo not given)
- survivor count (dose: 50.0 mg/kg/injection, schedule: Q04DX003 (ip), vehicle: saline with Tween-80): 1 of 6
- survivor count (dose: 100.0 mg/kg/injection, schedule: Q04DX003 (ip), vehicle: saline with Tween-80): 0 of 6
- survivor count (dose: 200.0 mg/kg/injection, schedule: Q04DX003 (ip), vehicle: saline with Tween-80): 0 of 6
- survivor count (dose: 400.0 mg/kg/injection, schedule: Q04DX003 (ip), vehicle: saline with Tween-80): 0 of 6

SMILES: C=CC1CN2CCC1CC2C(O)c1ccnc2ccc(OC)cc12 (stereo not given)
- survivor count [1]: 2 of 6

SMILES: O=c1c(CN(CCO)CCO)c(-c2ccccc2)sc2ccccc12
- survivor count [6]: 5 of 6
- survivor count (dose: 400.0 mg/kg/injection, schedule: Q04DX002 (ip), vehicle: saline with Tween-80): 0 of 6

SMILES: CCN(CC)Cc1c[nH]c2ccccc12
- survivor count (dose: 50.0 mg/kg/injection, schedule: Q01DX009 (ip), vehicle: Klucel (hydroxypropylcellulose) (HPC)): 0 of 6
- survivor count (dose: 100.0 mg/kg/injection, schedule: Q01DX009 (ip), vehicle: Klucel (hydroxypropylcellulose) (HPC)): 1 of 6
- survivor count (dose: 200.0 mg/kg/injection, schedule: Q01DX009 (ip), vehicle: Klucel (hydroxypropylcellulose) (HPC)): 0 of 6

SMILES: CCOC(=O)Nc1cc2c(c(N)n1)N=C(c1ccc(OC)cc1)CN2
- T/C (dose: 3.0 mg/kg/injection, schedule: Q01DX009 (ip), vehicle: Klucel (hydroxypropylcellulose) (HPC)): 135 % of control
- T/C (dose: 6.0 mg/kg/injection, schedule: Q01DX009 (ip), vehicle: Klucel (hydroxypropylcellulose) (HPC)): 125 and 131 % of control [5 of 6 alive]
- survivor count (dose: 12.0 mg/kg/injection, schedule: Q01DX009 (ip), vehicle: Klucel (hydroxypropylcellulose) (HPC)): 5 of 5 and 6 of 6
- T/C (dose: 12.0 mg/kg/injection, schedule: Q04DX003 (ip), vehicle: Klucel (hydroxypropylcellulose) (HPC)): 129 % of control
- T/C (dose: 12.5 mg/kg/injection, schedule: Q01DX001 (ip), vehicle: Klucel (hydroxypropylcellulose) (HPC)): 125 % of control
- T/C (dose: 25.0 mg/kg/injection, schedule: Q01DX001 (ip), vehicle: Klucel (hydroxypropylcellulose) (HPC)): 146 % of control
- survivor count (dose: 25.0 mg/kg/injection, schedule: Q01DX009 (ip), vehicle: Klucel (hydroxypropylcellulose) (HPC)): 0 of 6
- survivor count (dose: 25.0 mg/kg/injection, schedule: Q04DX003 (ip), vehicle: Klucel (hydroxypropylcellulose) (HPC)): 4 of 6
- survivor count (dose: 50.0 mg/kg/injection, schedule: Q01DX001 (ip), vehicle: Klucel (hydroxypropylcellulose) (HPC)): 1 of 6 and 2 of 6
- survivor count (dose: 50.0 mg/kg/injection, schedule: Q04DX003 (ip), vehicle: Klucel (hydroxypropylcellulose) (HPC)): 2 of 6 and 3 of 6
- survivor count (dose: 100.0 mg/kg/injection, schedule: Q01DX001 (ip), vehicle: Klucel (hydroxypropylcellulose) (HPC)): 0 of 6

SMILES: CC1(C)O[C@@H]2C[C@H]3[C@@H]4CCC5=CC(=O)CC[C@]5(C)[C@@]4(F)[C@@H](O)C[C@]3(C)[C@]2(C(=O)CO)O1
- survivor count [2]: 6 of 6

SMILES: C=Cc1cc(OC)c2c(c1)c(=O)oc1c2cc(OC)c2c(O)ccc(C3OC(C)C(O)C(C)(O)C3O)c21 (stereo not given)
- T/C (dose: 6.25 mg/kg/injection, schedule: Q01DX005 (ip), vehicle: DMSO): 129 and 135 % of control
- T/C [8]: 133 % of control
- survivor count [8]: 6 of 6
- survivor count (dose: 25.0 mg/kg/injection, schedule: Q01DX005 (ip), vehicle: DMSO): 6 of 6
- survivor count (dose: 50.0 mg/kg/injection, schedule: Q01DX005 (ip), vehicle: DMSO): 6 of 6
- survivor count (dose: 100.0 mg/kg/injection, schedule: Q01DX005 (ip), vehicle: DMSO): 3 of 6
- survivor count (dose: 200.0 mg/kg/injection, schedule: Q01DX005 (ip), vehicle: DMSO): 0 of 6

SMILES: O=S(=O)(Cc1cccs1)c1ncc(Br)cn1
- survivor count [7]: 0 of 6
